In this test the target is T1, IL-2 receptor on the surface of CTLL2 cell line (UniProt P01590).
T1 sequence (looked up) 1: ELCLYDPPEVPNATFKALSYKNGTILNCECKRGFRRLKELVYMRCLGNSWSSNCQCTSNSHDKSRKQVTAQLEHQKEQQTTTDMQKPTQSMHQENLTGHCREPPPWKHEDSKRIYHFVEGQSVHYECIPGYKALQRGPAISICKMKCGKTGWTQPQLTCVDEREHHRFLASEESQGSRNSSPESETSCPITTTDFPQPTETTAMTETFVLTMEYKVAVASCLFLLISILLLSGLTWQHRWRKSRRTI
T1 sequence (looked up) 2: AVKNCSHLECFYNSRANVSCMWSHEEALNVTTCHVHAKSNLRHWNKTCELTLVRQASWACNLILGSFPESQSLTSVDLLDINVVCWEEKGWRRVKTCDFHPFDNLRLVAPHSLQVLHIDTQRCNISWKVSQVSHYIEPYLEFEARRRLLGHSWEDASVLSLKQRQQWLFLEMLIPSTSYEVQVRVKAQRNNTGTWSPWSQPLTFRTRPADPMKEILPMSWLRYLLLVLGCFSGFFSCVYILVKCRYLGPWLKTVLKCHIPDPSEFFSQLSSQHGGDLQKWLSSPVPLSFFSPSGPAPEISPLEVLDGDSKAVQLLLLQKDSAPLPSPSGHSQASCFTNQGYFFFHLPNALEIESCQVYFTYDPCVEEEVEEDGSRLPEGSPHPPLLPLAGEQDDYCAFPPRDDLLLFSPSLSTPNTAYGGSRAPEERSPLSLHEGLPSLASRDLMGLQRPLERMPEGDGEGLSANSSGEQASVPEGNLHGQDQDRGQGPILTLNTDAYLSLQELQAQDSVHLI
T1 sequence (looked up) 3: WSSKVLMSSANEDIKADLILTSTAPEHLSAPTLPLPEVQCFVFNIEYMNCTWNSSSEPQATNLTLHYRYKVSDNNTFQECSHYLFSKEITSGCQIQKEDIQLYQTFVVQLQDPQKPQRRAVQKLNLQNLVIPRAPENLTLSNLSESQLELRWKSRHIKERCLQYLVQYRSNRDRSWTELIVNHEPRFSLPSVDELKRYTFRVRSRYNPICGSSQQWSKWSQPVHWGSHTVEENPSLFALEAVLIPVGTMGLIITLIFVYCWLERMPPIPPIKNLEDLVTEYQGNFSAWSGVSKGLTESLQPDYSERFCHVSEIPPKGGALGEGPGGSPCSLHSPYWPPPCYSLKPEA
Briefly: flow cytometry on CTLL2 cells, detection with anti 6His tag MAb. (A flow cytometer gives signals particle by particle.)

Amino acid sequences for entries named in this document (tags omitted). A change or cut given only in a name is not applied to a line headed by its entry. Chains listed by the source or under a name are the forms on record and can include a tag or linker.
IL-2 mutein R38A, F42A, Y45A, E62A (P60568, form named): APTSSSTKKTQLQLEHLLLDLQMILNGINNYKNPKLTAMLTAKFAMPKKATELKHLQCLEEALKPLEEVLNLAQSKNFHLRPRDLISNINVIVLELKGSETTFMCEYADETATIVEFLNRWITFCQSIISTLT
IL-2 mutein R38A, F42I, Y45N, E62L, E68V (P60568, form named): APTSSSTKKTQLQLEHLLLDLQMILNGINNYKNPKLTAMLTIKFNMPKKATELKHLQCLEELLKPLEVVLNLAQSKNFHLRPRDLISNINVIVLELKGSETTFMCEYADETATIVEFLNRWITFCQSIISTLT
IL-2 mutein R38K, F42I, Y45E, E68V (P60568, form named): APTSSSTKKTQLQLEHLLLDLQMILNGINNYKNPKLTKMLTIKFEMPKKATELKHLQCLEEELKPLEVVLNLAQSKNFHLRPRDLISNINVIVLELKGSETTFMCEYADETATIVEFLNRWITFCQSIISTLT
IL-2 mutein R38K, F42I, Y45N, E62L, E68V (P60568, form named): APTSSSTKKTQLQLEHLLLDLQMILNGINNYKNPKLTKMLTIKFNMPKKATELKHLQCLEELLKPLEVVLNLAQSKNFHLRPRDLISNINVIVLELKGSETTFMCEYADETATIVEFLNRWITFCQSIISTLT
IL-2 mutein R38K, F42K, Y45R, E62L, E68V (P60568, form named): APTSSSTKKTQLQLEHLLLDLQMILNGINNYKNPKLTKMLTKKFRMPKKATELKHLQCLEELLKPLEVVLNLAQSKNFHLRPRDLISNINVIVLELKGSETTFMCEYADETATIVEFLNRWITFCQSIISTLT
IL-2 mutein R38K, F42Q, Y45E, E68V (P60568, form named): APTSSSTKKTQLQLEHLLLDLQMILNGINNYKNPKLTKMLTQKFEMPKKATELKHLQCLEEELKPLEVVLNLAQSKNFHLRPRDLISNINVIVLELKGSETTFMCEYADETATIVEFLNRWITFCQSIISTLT

Results are given in words; binding and its absence hold for the method and conditions named. Some results given as binding are weak or reduced against the parent protein; the word gives no strength.

Turning to “IL-2 mutein R38A, F42A, Y45A, E62A (from UniProt P60568 21-153) (ligand)”, the binding result is reported as “binds”.

Regarding “IL-2 mutein R38A, F42I, Y45N, E62L, E68V (from UniProt P60568 21-153) (ligand)”, the binding result is reported as “binds”.

Consider “IL-2 mutein R38K, F42I, Y45E, E68V (from UniProt P60568 21-153) (ligand)”, for which the binding result is listed as “binds”.

For the substance “IL-2 mutein R38K, F42I, Y45N, E62L, E68V (from UniProt P60568 21-153) (ligand)”, the binding entry was “binds”.

As for “IL-2 mutein R38K, F42K, Y45R, E62L, E68V (from UniProt P60568 21-153) (ligand)”, the binding result was “binds”.

For the substance “IL-2 mutein R38K, F42Q, Y45E, E68V (from UniProt P60568 21-153) (ligand)”, the binding entry was “binds”.

Values taken from patent publication US9206243.
